Binding data for 2 substances are collected here from paper PMC11772500.

By UniProt entry, the sequences of proteins in these tests, tags left out. Where a name states a change or a piece, a line headed by the entry shows the natural chain unless it says otherwise. Chains listed by the source or under a name are the forms on record and can include a tag or linker. Residues count along the entry.
SUMO-His-tagged WT MSP domain of VAPB (O95292, residues 7-124): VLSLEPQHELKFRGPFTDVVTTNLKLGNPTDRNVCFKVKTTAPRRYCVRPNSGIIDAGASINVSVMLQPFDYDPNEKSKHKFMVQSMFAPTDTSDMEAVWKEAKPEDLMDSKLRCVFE
untagged P56S MSP domain of VAPB (O95292, form named): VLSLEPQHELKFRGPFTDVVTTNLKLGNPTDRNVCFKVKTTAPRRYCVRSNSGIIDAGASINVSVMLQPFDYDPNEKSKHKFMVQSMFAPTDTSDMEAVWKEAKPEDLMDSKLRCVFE

No constants are given. Whether binding was seen depends on the method and setting. Some entries that bind do so weakly or less than the wild type.

Assay [1] has as its target SUMO-His-tagged P56S MSP domain of VAPB (human) (UniProt O95292). Kind of assay: polyacrylamide gel of unboiled samples (Ponceau S staining, Western blot); 6 ug of purified SUMO-His-tagged MSP domain in sample buffer with or without reducing agents (DTT 10 and 20 mM), 12% polyacrylamide gel, samples not boiled; DTT reduced the multimeric forms of P56S; both purified.
Assay [2] has the same target. Kind of assay: pull-down; 4 ug SUMO-His-tagged WT or P56S MSP domain on Ni-NTA agarose as bait, 4 ug untagged WT or P56S MSP domain as prey; overnight at 4°C; 25 m Tris-HCl pH 7.4, 150 mM NaCl, 0.2% Triton X-100, 0.5 mg/ml BSA; with or without 1 mM DTT (association counteracted by reducing agents); prey detected by anti-VAPB blot; both purified.
Assay [3] deals with SUMO-His-tagged WT MSP domain of VAPB (human) (UniProt O95292). Described as above.

For “SUMO-His-tagged P56S MSP domain of VAPB (from UniProt O95292 7-124) (domain or fragment)”, the binding entry in assay [1] is reported as “binds”.

In the case of “untagged P56S MSP domain of VAPB (from UniProt O95292 7-124) (domain or fragment)”, the binding result in assay [2] and in assay [3] was “binds” throughout.
